# Assay results taken from the supplement of paper PMC8728848.
# Some of the results follow.
# Key:
# Experiment in all cases: glycan array binding signal (z-score within array); higher = stronger binding
# Details in all cases: glycan notation: IUPAC condensed, linker removed
# [1] = molecular target: Neu5Ac(a2-3)Gal(b1-3)GalNAc6S
# In short: (§1)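 From the Consortium for Functional Glycomics database, 3228 arrays were curated, keeping only those whose protein sequence was available. Binding is given as a within-array Z-score averaged across arrays sharing a protein sequence and across linkers. Negative Z-scores can be read as non-binding.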
# [2] = molecular target: Neu5Ac(a2-3)Gal(b1-3)GlcNAc
# In short: as §1
# [3] = molecular target: Neu5Ac(a2-3)Gal(b1-3)GlcNAc(b1-3)Gal(b1-3)GlcNAc
# In short: as §1
# [4] = molecular target: Neu5Ac(a2-3)Gal(b1-3)GlcNAc(b1-3)Gal(b1-4)GlcNAc
# In short: as §1
# [5] = molecular target: Neu5Ac(a2-3)Gal(b1-3)GlcNAc(b1-3)GalNAc
# In short: as §1
# [6] = molecular target: Neu5Ac(a2-3)Gal(b1-3)GlcNAc6S
# In short: as §1
# [7] = molecular target: Neu5Ac(a2-3)Gal(b1-3)[Fuc(a1-4)]GlcNAc
# In short: as §1
# [8] = molecular target: Neu5Ac(a2-3)Gal(b1-3)[Fuc(a1-4)]GlcNAc(b1-3)Gal(b1-3)[Fuc(a1-4)]GlcNAc
# In short: as §1
# [9] = molecular target: Neu5Ac(a2-3)Gal(b1-3)[Fuc(a1-4)]GlcNAc(b1-3)Gal(b1-4)[Fuc(a1-3)]GlcNAc
# In short: as §1
# [10] = molecular target: Neu5Ac(a2-3)Gal(b1-3)[Neu5Ac(a2-3)Gal(b1-4)]GlcNAc
# In short: as §1
# [11] = molecular target: Neu5Ac(a2-3)Gal(b1-3)[Neu5Ac(a2-6)]GalNAc
# In short: as §1
# [12] = molecular target: Neu5Ac(a2-3)Gal(b1-4)Glc
# In short: as §1
# [13] = molecular target: Neu5Ac(a2-3)Gal(b1-4)GlcNAc
# In short: as §1
# [14] = molecular target: Neu5Ac(a2-3)Gal(b1-4)GlcNAc(b1-2)Man(a1-3)[GlcNAc(b1-2)Man(b1-4)GlcNAc(b1-2)Man(a1-6)]Man(b1-4)GlcNAc(b1-4)GlcNAc
# In short: as §1
# [15] = molecular target: Neu5Ac(a2-3)Gal(b1-4)GlcNAc(b1-2)Man(a1-3)[Neu5Ac(a2-6)Gal(b1-4)GlcNAc(b1-2)Man(a1-6)]Man(b1-4)GlcNAc(b1-4)GlcNAc
# In short: as §1
# [16] = molecular target: Neu5Ac(a2-3)Gal(b1-4)GlcNAc(b1-3)Gal
# In short: as §1
# [17] = molecular target: Neu5Ac(a2-3)Gal(b1-4)GlcNAc(b1-3)Gal(b1-3)GlcNAc
# In short: as §1
# [18] = molecular target: Neu5Ac(a2-3)Gal(b1-4)GlcNAc(b1-3)Gal(b1-4)GlcNAc
# In short: as §1
# [19] = molecular target: Neu5Ac(a2-3)Gal(b1-4)GlcNAc(b1-3)Gal(b1-4)GlcNAc(b1-3)Gal(b1-4)GlcNAc
# In short: as §1
# [20] = molecular target: Neu5Ac(a2-3)Gal(b1-4)GlcNAc(b1-3)Gal(b1-4)[Fuc(a1-3)]GlcNAc
# In short: as §1
# [21] = molecular target: Neu5Ac(a2-3)Gal(b1-4)GlcNAc(b1-3)GalNAc
# In short: as §1
# [22] = molecular target: Neu5Ac(a2-3)Gal(b1-4)GlcNAc(b1-6)[Gal(b1-3)]GalNAc
# In short: as §1
# [23] = molecular target: Neu5Ac(a2-3)Gal(b1-4)GlcNAc(b1-6)[Neu5Ac(a2-3)Gal(b1-3)]GalNAc
# In short: as §1
# [24] = molecular target: Neu5Ac(a2-3)Gal(b1-4)GlcNAc6S
# In short: as §1
# [25] = molecular target: Neu5Ac(a2-3)Gal(b1-4)[Fuc(a1-3)]GlcNAc
# In short: as §1
# [26] = molecular target: Neu5Ac(a2-3)Gal(b1-4)[Fuc(a1-3)]GlcNAc(b1-3)Gal
# In short: as §1
# [27] = molecular target: Neu5Ac(a2-3)Gal(b1-4)[Fuc(a1-3)]GlcNAc(b1-3)Gal(b1-4)GlcNAc
# In short: as §1
# [28] = molecular target: Neu5Ac(a2-3)Gal(b1-4)[Fuc(a1-3)]GlcNAc(b1-3)Gal(b1-4)[Fuc(a1-3)]GlcNAc(b1-3)Gal(b1-4)[Fuc(a1-3)]GlcNAc
# In short: as §1
# [29] = molecular target: Neu5Ac(a2-3)Gal(b1-4)[Fuc(a1-3)]GlcNAc(b1-3)GalNAc
# In short: as §1
# [30] = molecular target: Neu5Ac(a2-3)Gal(b1-4)[Fuc(a1-3)]GlcNAc(b1-6)[Gal(b1-3)]GalNAc
# In short: as §1
# [31] = molecular target: Neu5Ac(a2-3)Gal(b1-4)[Fuc(a1-3)]GlcNAc6S
# In short: as §1
# [32] = molecular target: Neu5Ac(a2-3)Gal6S(b1-4)GlcNAc
# In short: as §1
# [33] = molecular target: Neu5Ac(a2-3)Gal6S(b1-4)[Fuc(a1-3)]GlcNAc
# In short: as §1
# [34] = molecular target: Neu5Ac(a2-3)GalNAc
# In short: as §1
# [35] = molecular target: Neu5Ac(a2-3)GalNAc(b1-4)GlcNAc
# In short: as §1
# [36] = molecular target: Neu5Ac(a2-3)[GalNAc(b1-4)]Gal(b1-4)Glc
# In short: as §1
# [37] = molecular target: Neu5Ac(a2-3)[GalNAc(b1-4)]Gal(b1-4)GlcNAc
# In short: as §1
binder,measurement,setting,value
"PGP3 (Chlamydia trachomatis), P0CE18 (protein) MGNSGFYLYNTQNCVFADNIKVGQMTEPLKDQQIILGTTSTPVAAKMTASDGISLTVSNNPSTNASITIGLDAEKAYQLILEKLGDQILGGIADTIVDSTVQDILDKITTDPSLGLLKAFNNFPITNKIQCNGLFTPRNIETLLGGTEIGKFTVTPKSSGSMFLVSADIIASRMEGGVVLALVREGDSKPYAISYGYSSGVPNLCSLRTRIINTGLTPTTYSLRVGGLESGVVWVNALSNGNDILGITNTSNVSFLEVIPQTNA",glycan array binding signal (z-score),[1],-1.42
same,glycan array binding signal (z-score),[2],0.288
same,glycan array binding signal (z-score),[3],-0.785
same,glycan array binding signal (z-score),[4],0.956
same,glycan array binding signal (z-score),[5],0.649
same,glycan array binding signal (z-score),[6],-1.31
same,glycan array binding signal (z-score),[7],-0.97
same,glycan array binding signal (z-score),[8],0.109
same,glycan array binding signal (z-score),[9],-0.346
same,glycan array binding signal (z-score),[10],0.901
same,glycan array binding signal (z-score),[11],0.039
same,glycan array binding signal (z-score),[12],-1.46
same,glycan array binding signal (z-score),[13],0.238
same,glycan array binding signal (z-score),[14],-0.621
same,glycan array binding signal (z-score),[15],-0.457
same,glycan array binding signal (z-score),[16],0.551
same,glycan array binding signal (z-score),[17],-0.5
same,glycan array binding signal (z-score),[18],-0.444
same,glycan array binding signal (z-score),[19],-0.859
same,glycan array binding signal (z-score),[20],-0.486
same,glycan array binding signal (z-score),[21],-1.59
same,glycan array binding signal (z-score),[22],0.041
same,glycan array binding signal (z-score),[23],-0.535
same,glycan array binding signal (z-score),[24],-1.53
same,glycan array binding signal (z-score),[25],-0.763
same,glycan array binding signal (z-score),[26],0.164
same,glycan array binding signal (z-score),[27],0.128
same,glycan array binding signal (z-score),[28],1.86
same,glycan array binding signal (z-score),[29],2.05
same,glycan array binding signal (z-score),[30],-1.3
same,glycan array binding signal (z-score),[31],-0.45
same,glycan array binding signal (z-score),[32],2.5
same,glycan array binding signal (z-score),[33],0.195
same,glycan array binding signal (z-score),[34],1.01
same,glycan array binding signal (z-score),[35],-0.907
same,glycan array binding signal (z-score),[36],-0.991
same,glycan array binding signal (z-score),[37],0.973

# Some of the entries so far, tab-delimited:
binder	measurement	setting	value
PGP3 (Chlamydia trachomatis), P0CE18 (protein) MGNSGFYLYNTQNCVFADNIKVGQMTEPLKDQQIILGTTSTPVAAKMTASDGISLTVSNNPSTNASITIGLDAEKAYQLILEKLGDQILGGIADTIVDSTVQDILDKITTDPSLGLLKAFNNFPITNKIQCNGLFTPRNIETLLGGTEIGKFTVTPKSSGSMFLVSADIIASRMEGGVVLALVREGDSKPYAISYGYSSGVPNLCSLRTRIINTGLTPTTYSLRVGGLESGVVWVNALSNGNDILGITNTSNVSFLEVIPQTNA	glycan array binding signal (z-score)	[9]	-0.346
same	glycan array binding signal (z-score)	[13]	0.238
